## Library screening results

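Viability assay of Plasmodium falciparum sporozoites; the read-out is not stated. The concentration is filed as 10 mM, unlikely as a test dose, so the dose is not known. Higher reads as lower viability (inferred: compounds with an IC50 in retests scored well above the rest). Strong results were mostly tested again. Of about 34,000 compounds tested this way, about 280 (0.84%) reached 50% or more in at least one test.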

Values are the deposited “Percent Effect”, in %.
The controls that fix the scale are not given in the record; negative values are as filed.
This is an unselected part of the compounds tested.
Two or more numbers in one place are separate tests of the same structure; such repeats can differ widely.

Compound	Percent Effect
CCn1cc(NC(=O)C2CCN(Cc3nc(C(C)C)no3)CC2)cn1	4.376
CCOc1ccc(-c2ccnc(C)n2)cc1C(=O)O	-4.961
CC(C)C(NC(=O)C1CCCC1)c1cc(O)nc(-c2cccnc2)n1 (centres unmarked)	-0.1283
CCOCCOc1ccccc1C(=O)N1CCCC(c2ncc[nH]2)C1 (centres unmarked)	-5.313
CC(Cn1ccnc1)NC(=O)N(C)Cc1ccc2c(c1)OCO2 (centres unmarked)	20.33
CCOc1ccc(NC(=O)NCc2csc(NC)n2)cc1C	-6.934
CN(C)CCN1C(=O)CCC12CCCN(C(=O)c1cccnc1)CC2.O=C(O)C(F)(F)F.O=C(O)C(F)(F)F (centres unmarked)	-20.94 and -20.63 and -15.49
CC(c1ccc(Cl)cc1)N1CCN(CCNS(C)(=O)=O)CC1 (centres unmarked)	3.412
O=C(O)C(F)(F)F.[H][C@@]12CO[C@@H](CNC(=O)c3cnn(C)c3)[C@]1([H])CCN(Cc1ccco1)C2	-4.022
CCc1nc(C2CCCN2C(=O)c2ccc(N(C)C)nn2)no1 (centres unmarked)	6.881
Cc1csc(N2CCCN(C(=O)c3ccsc3)CC2)n1	-4.281
c1ccc2oc(CCCN3CCOC(Cn4cccn4)C3)nc2c1 (centres unmarked)	-12.02
CCCc1noc(CCCC(=O)N2CCCC(n3ccnc3C)C2)n1 (centres unmarked)	5.623
CC(C)=CCCC1(C)C=Cc2c(cc(C)n(CC(=O)O)c2=O)O1 (centres unmarked)	6.532
c1cnc(-c2nc(CN3CCCN(Cc4cccs4)CC3)cs2)nc1	-6.924 and 13.02 and 13.14
Cl.Cn1cnc2c(-c3ccccc3)nc(C3CCNCC3)cc21	7.411
[H][C@@]12CCN(C(=O)c3ccoc3)C[C@@]1([H])O[C@H](c1nnc(C3CC3)o1)C2	-1.216
COc1cccc(COCC(=O)N2CCCC(N3CCCC3)CC2)c1 (centres unmarked)	-11.71
Cc1cc(CCC(N)=O)cc(C2CCCN2Cc2ccnn2C)n1 (centres unmarked)	9.617
O=c1[nH]c(N2CCCCC2)nc2c1CCN(Cc1cccnc1)C2	-3.206
Cc1cccc(N2CCN(C(=O)CCCC(=O)N(C)C)C(C)C2)n1 (centres unmarked)	6.449
COc1ccc(F)cc1C(C)NC(=O)NCCCn1cncn1 (centres unmarked)	-5.846
CCN(CC)C(=O)CN1CCCC1c1nc(C)c2c(n1)N(C)C(=O)CC2 (centres unmarked)	0
Cc1ccccc1CN(C)C(=O)CN1CCOC(Cn2cccn2)C1 (centres unmarked)	6.144
Cc1cc(C)c(CNCC(O)c2ccc(F)c(F)c2)c(C)c1.Cl (centres unmarked)	-9.111
CCC(CC#N)n1ccc(C(F)(F)F)n1 (centres unmarked)	-3.541
Cc1cccc(CN2CCc3nnc(CO)n3CC2)n1.O=C(O)C(F)(F)F	4.671
Cc1noc(C2CCC3(CCN(C(=O)C4CCOCC4)CC3)O2)n1 (centres unmarked)	8.333
CC1(C(=O)N2CCOCC2)CN(Cc2cccnc2)CCO1 (centres unmarked)	6.281
CCn1cc(S(=O)(=O)N2CCCCCC2c2cc(C)no2)cn1 (centres unmarked)	-3.057
COCCN1CCC2(CC1)CC(NCc1ccc(C)s1)c1ccccc12.O=C(O)C(F)(F)F.O=C(O)C(F)(F)F (centres unmarked)	0.5254
Cc1ccc(C)c(-n2ccc3nc(N4CCCC4)ncc3c2=O)c1	-3.509
O=C(O)C(F)(F)F.[H][C@@]12CCN(Cc3ccoc3)C[C@@]1([H])O[C@H](C(=O)NC1CCCC1)C2	3.647
CNC(=O)CN1CCC(NC(=O)Cc2ccc3c(c2)OCCO3)CC1	9.832 and 10.4 and 9.095
COCCN1CCN(Cc2cnc(C)nc2)CC1	-3.027
O=C(O)C(F)(F)F.[H][C@@]12CCN(C3CCOCC3)[C@]1([H])CC[C@H](C(=O)N1CCOCC1)O2	-4.195
Cc1noc(C)c1CNC(=O)N1CCC(C(O)c2ccccc2)CC1 (centres unmarked)	-0.8419
CNC(=O)COC1COC2(CCN(Cc3ccncc3F)CC2)C1.O=C(O)C(F)(F)F (centres unmarked)	11.27
Cc1cnc2c(S(=O)(=O)NCC3CCOC3)cccc2c1 (centres unmarked)	-15.89
CCC1c2ccsc2CCN1C(=O)NCc1cccnc1OC (centres unmarked)	5.047
Cn1cnc(S(=O)(=O)N2CC3(CCN(CC4CC4)C3)C2)c1.O=C(O)C(F)(F)F.O=C(O)C(F)(F)F	8.608
Cc1csc(N2CCN(C(=O)C(C(C)C)n3cncn3)CC2)n1 (centres unmarked)	3.041
COCc1cnc2n1CCN(C(=O)c1cn(C)c3ccccc13)C2C (centres unmarked)	11.98
Cn1ccnc1COc1ccc(CN2CCC(C(N)=O)CC2)cc1	-2.407
Cc1csc2ncc(-c3ccnc(N4CCN(C)CC4)n3)c(=O)n12	-12.25
C[C@@H]1CN(C(=O)c2ccncc2)CC[C@@]1(O)C1CCOCC1	0.08772
[H][C@]12CC[C@]([H])(CN(C(=O)c3ccncc3)C1)N(Cc1cnn(CC)c1)C2	3.908
CCN(CC)S(=O)(=O)N(C)Cc1ccncc1	-11.46
O=C(C1CC(=O)N(c2n[nH]c3cc(Br)ccc23)C1)N1CCSCC1 (centres unmarked)	7.051
O=C(O)C(F)(F)F.[H][C@@]12C[C@H](c3nc(C)cs3)O[C@@]1([H])CCN(Cc1cc(C)on1)C2	-9.982
Cc1nc2cc(C(=O)N3CCCC(n4cncn4)C3)ccc2n1C (centres unmarked)	0.08354
[H][C@@]12CCN(C(=O)C3CCOCC3)C[C@]1(COC)CCO2	4.344
COc1cccc(OC)c1CN1CC(O)CN(S(C)(=O)=O)CC1=O (centres unmarked)	-32.15
COCc1nn(C)c2c1CCN(Cc1cnn(C)c1)C2.O=C(O)C(F)(F)F	2.737
COc1cccn(CC(=O)N(C)Cc2ccoc2)c1=O	-9.822
COc1ncc(CN2CC[C@@](C)(O)[C@H](Oc3cccc(F)c3)C2)cn1	-4.005
Cn1ccc(-c2cc(C(=O)N3CCOCC3)c3ccccn23)n1	-6.857
CN1C(=O)C2(CCN(C(=O)c3ccccc3)CC2)c2cc(F)ccc21.Cl	9.114
CN(CCC#N)C(=O)CCOc1cccc(F)c1	7.103
OCCn1nccc1C1CCN(CCOc2ccccc2)CC1	4.937
O=c1oc(-c2cccs2)nn1CC(O)c1ccc2c(c1)CCC2 (centres unmarked)	-0.4902
NC(=O)C1CCN(C(=O)c2cccn2Cc2cccs2)CC1	-2.762
COc1ccc(NCc2nc(=O)n(CCC(C)C)[nH]2)cc1	-12.29
C[S+]([O-])c1nncn1CC(=O)c1ccc(Cl)c(Cl)c1 (centres unmarked)	4.383
[H][C@]12CN(Cc3cc(C)no3)CCN1C[C@H](c1ccccc1)[C@H]2CO	-43.32
CS(=O)(=O)CCC(=O)N1CCC2(CCCN(C3CCOCC3)C2=O)C1 (centres unmarked)	2.339
CC(C)COCCCNC(=O)NCC(O)c1cccc(F)c1 (centres unmarked)	2.496
CC(C)Cn1cc(NC(=O)NC(C)(C)c2nccs2)cn1	3.622
Cc1nc(CNC(=O)N(C)Cc2cnn(C)c2)cs1	6.166
O=C(O)CC(O)(CC(=O)O)C(=O)O.c1ccc([C@@H]2CN(Cc3ccncc3)C[C@H]2c2cc[nH]n2)cc1	2.79
CC(C)C(=O)N1CCC(Cc2nccnc2Nc2ccccn2)CC1	11.13
Cl.OC1(Cn2ccc3ncccc32)CCN(Cc2ccccn2)CC1	-3.91
CN(C)C(=O)CN1CCC(c2c(C(N)=O)sc3ncccc23)C1 (centres unmarked)	4.812
CC(C)N1CCC2(CCCNC2)C1=O.Cl (centres unmarked)	9.019
O=C(O)C(F)(F)F.[H][C@@]12COC[C@@H](C(=O)NCc3ccco3)[C@]1([H])CN(c1ncc(F)cn1)C2	-21.17 and -33.13

For reference, 7 entries once more:

Compound,Percent Effect
C[S+]([O-])c1nncn1CC(=O)c1ccc(Cl)c(Cl)c1 (centres unmarked),4.383
CCc1nc(C2CCCN2C(=O)c2ccc(N(C)C)nn2)no1 (centres unmarked),6.881
Cn1cnc(S(=O)(=O)N2CC3(CCN(CC4CC4)C3)C2)c1.O=C(O)C(F)(F)F.O=C(O)C(F)(F)F,8.608
[H][C@]12CN(Cc3cc(C)no3)CCN1C[C@H](c1ccccc1)[C@H]2CO,-43.32
CCOCCOc1ccccc1C(=O)N1CCCC(c2ncc[nH]2)C1 (centres unmarked),-5.313
Cc1nc(CNC(=O)N(C)Cc2cnn(C)c2)cs1,6.166
COCc1nn(C)c2c1CCN(Cc1cnn(C)c1)C2.O=C(O)C(F)(F)F,2.737

The values are deposited in ChEMBL (CHEMBL3988442, “University of Dundee, Small-Polar-MMV Screening Library” (2021)).